From US12662504B2, “High-solubility rebaudioside D complex” (SUNTORY HOLDINGS LIMITED, priority 2019, dated 2026)

Assay: Sweetness relative to sugar (sucrose)
Settings: calculated from central values of the sweetnesses
For `C=C1C[C@@]23CC[C@H]4[C@@](C)(CCC[C@@]4(C)C(=O)O[C@@H]4O[C@H](CO)[C@@H](O)[C@H](O)[C@H]4O)[C@@H]2CC[C@]1(O[C@@H]1O[C@H](CO)[C@@H](O)[C@H](O[C@@H]2O[C@H](CO)[C@@H](O)[C@H](O)[C@H]2O)[C@H]1O[C@@H]1O[C@H](CO)[C@@H](O)[C@H](O)[C@H]1O)C3` [Reb. A, rebaudioside A], the “amount of steviol glycoside corresponding to Brix 1” value (from here on “amount”) was 30.7 ppm. In the case of `C=C1C[C@@]23CC[C@H]4[C@@](C)(CCC[C@@]4(C)C(=O)O[C@@H]4OC(CO)[C@@H](O)C(O)C4O[C@@H]4OC(CO)[C@@H](O)C(O)C4O)[C@@H]2CC[C@]1(O[C@@H]1OC(CO)[C@@H](O)C(O[C@@H]2OC(CO)[C@@H](O)C(O)C2O)C1O[C@@H]1OC(CO)[C@@H](O)C(O)C1O)C3` (stereo partly shown) [Reb. D, rebaudioside D], the “amount” value is reported as 40.0 ppm. For `C=C1C[C@@]23CC[C@H]4[C@@](C)(CCC[C@@]4(C)C(=O)O[C@@H]4O[C@H](CO)[C@@H](O)[C@H](O[C@@H]5O[C@H](CO)[C@@H](O)[C@H](O)[C@H]5O)[C@H]4O[C@@H]4O[C@H](CO)[C@@H](O)[C@H](O)[C@H]4O)[C@@H]2CC[C@]1(O[C@@H]1O[C@H](CO)[C@@H](O)[C@H](O[C@@H]2O[C@H](CO)[C@@H](O)[C@H](O)[C@H]2O)[C@H]1O[C@@H]1O[C@H](CO)[C@@H](O)[C@H](O)[C@H]1O)C3` [Reb. M, rebaudioside M], the “amount” value was 40.0 ppm. In the case of rebaudioside B [Reb. B], the “amount” value is reported as 30.7 ppm.
